## Screening data

From PubChem BioAssay record AID912 (NCATS, 2007).

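A cell-based FRET test of anthrax lethal toxin entry, tracked through the 460 nm emission signal; the cell line is not named here.
Each compound was tested as a concentration series from about 0.0005 to 40 µM.
The number is the fitted AC50 of the 460 nm signal alone; lower values mean a more potent effect. A falling signal goes with compounds filed as inhibitors or cytotoxic, a rising one with activators or fluorescent compounds (inferred from the filed classes).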

Values are in µM.
Common to all entries: measured here: 460 nm channel.
This is a side read-out of the assay, for part of the compounds, not drawn at random.
Potencies fitted to partial, single-point or poorly fitting curves are rough.
The first word of each remark tells which way the curve ran; it can be opposite to the aim of the assay.

CN1CCN(S(=O)(=O)c2ccc(NC(=O)c3cccs3)cc2)CC1 gave AC50 19.95 µM (rising, single point).
Cc1cccc(N(CC(=O)Nc2ccc(CC#N)cc2)S(C)(=O)=O)c1 gave AC50 1 µM (rising, full curve, poor fit).
CCOC(=O)C1=C(C)N=c2s/c(=C/c3ccco3)c(=O)n2C1c1cccc(OC)c1 (stereo unspecified) gave AC50 12.59 µM (falling, partial curve).
CC(=O)Oc1ccc(N2C(=O)C3C(C2=O)C2(C)C=CC3(C)O2)cc1 (stereo unspecified) gave AC50 5.012 µM (falling, full curve).
N#Cc1cccc(-c2ccc3ncnc(NCc4ccccc4)c3c2)c1 gave AC50 19.95 µM (falling, single point).
CS(=O)(=O)c1nc(-c2ccco2)cc(C(F)(F)F)n1 gave AC50 10 µM (falling, partial curve).
CCC(C)(C)n1nnnc1CN(Cc1ccc(Cl)cc1)Cc1ccco1 gave AC50 3.162 µM (falling, partial curve).
COc1cccc(Cn2c(=O)c(-c3cccs3)nc3cnc(Nc4ccccc4)nc32)c1 gave AC50 12.59 µM (rising, partial curve).
CCN1CCN(C(=O)CN(c2cc(OC)ccc2OC)S(C)(=O)=O)CC1 gave AC50 5.012 µM (falling, single point).
CN(C)c1ncc2nc(-c3ccc(Cl)cc3)c(=O)n(Cc3ccc(F)cc3)c2n1 gave AC50 1.259 µM (rising, full curve).
N#CCCn1cnc2ccccc21 gave AC50 31.62 µM (rising, single point).
Cc1c(O)ccc(C(=O)CN2C(=O)c3ccccc3C2=O)c1O gave AC50 3.162 µM (rising, partial curve).
COCC(=O)N1CCC2(CC1)CN(Cc1cc(C(F)(F)F)cc(C(F)(F)F)c1)C2 gave AC50 25.12 µM (rising, partial curve, poor fit).
S=C=Nc1cccc(C2(N3CCCCC3)CCCCC2)c1 gave AC50 3.981 µM (falling, full curve).
O=C(Nc1cccc(-c2cn3ccsc3n2)c1)c1ccccc1 gave AC50 31.62 µM (falling, single point).
CCCC[C@H](CC)CN=C(N)NC(N)=NCCCCCCN=C(N)NC(N)=NC[C@@H](CC)CCCC gave AC50 10 µM (rising, single point).
COc1ccccc1OCc1nnc(SCC(=O)c2cc(Cl)ccc2OC)o1 gave AC50 10 µM (falling, partial curve).
N#CC1=C(N)Oc2n[nH]c(-c3ccncc3)c2C1c1ccsc1 (stereo unspecified) gave AC50 10 µM (falling, partial curve).
CCN(CC)CCNC(=O)c1cc2c(-c3ccc(Cl)cc3)nn(C)c2s1 gave AC50 12.59 µM (falling, partial curve).
Clc1ccc(Cc2nnc(-c3cccs3)o2)cc1 gave AC50 3.162 µM (falling, single point).
CCNc1ccc2c(Cl)cc(=O)oc2c1 gave AC50 10 µM (rising, partial curve).
COc1ccc(Cl)cc1S(=O)(=O)N1CCN(c2ccc(F)cc2)CC1 gave AC50 12.59 µM (falling, partial curve).
O=C(O)[C@@H]1CCCN1 gave AC50 0.7943 µM (falling, partial curve).
COc1ccccc1N1CCN(C(=O)CSc2nc(C)c(Cc3ccccc3)c(=O)[nH]2)CC1 gave AC50 31.62 µM (falling, partial curve, poor fit).
O=C(CSc1nc(-c2ccco2)cc(C(F)(F)F)n1)Nc1ccc2c(c1)OCO2 gave AC50 1.995 µM (falling, partial curve, poor fit).
Cc1ccc(N(CC(=O)Nc2ccc(F)c(Cl)c2)S(=O)(=O)c2c(C)noc2C)cc1 gave AC50 10 µM (falling, partial curve).
Cc1ccc(/C(O)=C2\C(=O)C(=O)N(c3cc(C)on3)C2c2cccc(Br)c2)cc1 (stereo unspecified) gave AC50 1 µM (falling, single point).

For reference, 3 entries once more:

| compound | AC50 (µM) | remark |
|---|---|---|
| `COc1ccccc1OCc1nnc(SCC(=O)c2cc(Cl)ccc2OC)o1` | 10 | falling, partial curve |
| `CCN1CCN(C(=O)CN(c2cc(OC)ccc2OC)S(C)(=O)=O)CC1` | 5.012 | falling, single point |
| `Clc1ccc(Cc2nnc(-c3cccs3)o2)cc1` | 3.162 | falling, single point |